Test results taken from the supplement of paper PMC12819154, “High-throughput peptide-centric local stability assay extends protein–ligand identification to membrane proteins, tissues and bacteria” (Nature Structural & Molecular Biology, 2025).
This is one part of the list. Small differences around the control level are noise.

Sequences of proteins named here, by UniProt entry; tags and fusion partners are left off. A change or cut given only in a name is not applied to a line headed by its entry.
UniProt Q9D2C2: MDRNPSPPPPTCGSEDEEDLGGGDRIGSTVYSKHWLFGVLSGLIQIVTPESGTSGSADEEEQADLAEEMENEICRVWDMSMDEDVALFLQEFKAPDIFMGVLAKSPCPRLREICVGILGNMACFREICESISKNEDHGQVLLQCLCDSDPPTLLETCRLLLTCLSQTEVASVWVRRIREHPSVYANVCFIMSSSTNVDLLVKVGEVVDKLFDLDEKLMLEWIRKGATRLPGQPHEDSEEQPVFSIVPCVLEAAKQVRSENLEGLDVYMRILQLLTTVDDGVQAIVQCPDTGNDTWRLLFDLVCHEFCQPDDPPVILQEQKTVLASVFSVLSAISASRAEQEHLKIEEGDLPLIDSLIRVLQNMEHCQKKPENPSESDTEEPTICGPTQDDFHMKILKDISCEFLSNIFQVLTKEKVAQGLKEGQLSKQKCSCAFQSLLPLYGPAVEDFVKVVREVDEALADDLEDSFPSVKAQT
UniProt Q9D8K8: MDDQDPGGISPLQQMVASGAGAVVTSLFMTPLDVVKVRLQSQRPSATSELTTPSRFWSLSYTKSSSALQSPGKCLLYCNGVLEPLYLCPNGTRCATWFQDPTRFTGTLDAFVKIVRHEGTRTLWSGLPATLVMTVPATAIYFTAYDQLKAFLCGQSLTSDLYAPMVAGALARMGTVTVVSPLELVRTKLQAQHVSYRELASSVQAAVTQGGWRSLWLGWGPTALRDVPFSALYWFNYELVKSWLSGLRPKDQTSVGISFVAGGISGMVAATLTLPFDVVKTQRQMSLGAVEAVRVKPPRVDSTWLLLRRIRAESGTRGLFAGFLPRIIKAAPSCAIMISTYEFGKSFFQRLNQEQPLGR
UniProt Q9D1N2: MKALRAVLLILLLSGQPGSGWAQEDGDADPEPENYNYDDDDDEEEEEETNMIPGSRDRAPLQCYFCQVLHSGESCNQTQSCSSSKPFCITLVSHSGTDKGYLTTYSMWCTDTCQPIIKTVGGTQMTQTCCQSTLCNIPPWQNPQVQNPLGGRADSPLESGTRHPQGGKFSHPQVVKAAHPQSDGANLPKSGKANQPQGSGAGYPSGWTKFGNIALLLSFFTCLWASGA
UniProt Q9D844: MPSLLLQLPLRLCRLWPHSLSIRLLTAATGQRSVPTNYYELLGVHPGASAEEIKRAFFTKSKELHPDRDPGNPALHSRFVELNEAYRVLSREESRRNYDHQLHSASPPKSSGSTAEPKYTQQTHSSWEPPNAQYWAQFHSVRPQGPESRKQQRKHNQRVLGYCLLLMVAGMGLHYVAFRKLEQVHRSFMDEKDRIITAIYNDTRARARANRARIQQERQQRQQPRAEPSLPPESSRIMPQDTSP
UniProt Q9D5D8: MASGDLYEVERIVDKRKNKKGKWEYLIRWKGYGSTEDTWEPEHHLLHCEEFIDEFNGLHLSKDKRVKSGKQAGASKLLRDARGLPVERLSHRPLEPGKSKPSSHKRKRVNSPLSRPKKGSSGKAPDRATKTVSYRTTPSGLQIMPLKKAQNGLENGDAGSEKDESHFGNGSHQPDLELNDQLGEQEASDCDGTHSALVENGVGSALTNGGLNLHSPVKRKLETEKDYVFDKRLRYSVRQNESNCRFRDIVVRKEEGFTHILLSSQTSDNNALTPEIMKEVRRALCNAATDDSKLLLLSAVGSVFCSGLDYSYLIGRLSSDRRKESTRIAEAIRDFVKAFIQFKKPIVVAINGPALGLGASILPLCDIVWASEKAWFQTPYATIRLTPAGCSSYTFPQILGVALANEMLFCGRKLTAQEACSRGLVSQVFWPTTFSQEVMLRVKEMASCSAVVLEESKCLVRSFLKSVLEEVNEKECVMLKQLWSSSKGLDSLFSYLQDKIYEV
UniProt Q9D4F2: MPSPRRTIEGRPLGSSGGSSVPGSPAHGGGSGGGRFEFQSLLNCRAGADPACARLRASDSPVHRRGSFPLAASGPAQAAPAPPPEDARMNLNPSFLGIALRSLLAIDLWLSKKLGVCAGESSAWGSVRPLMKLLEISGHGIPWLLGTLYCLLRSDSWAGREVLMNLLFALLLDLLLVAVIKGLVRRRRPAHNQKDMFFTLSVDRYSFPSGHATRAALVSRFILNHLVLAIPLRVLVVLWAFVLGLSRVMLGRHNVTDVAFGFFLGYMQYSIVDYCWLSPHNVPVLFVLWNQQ
UniProt Q9D8Y7: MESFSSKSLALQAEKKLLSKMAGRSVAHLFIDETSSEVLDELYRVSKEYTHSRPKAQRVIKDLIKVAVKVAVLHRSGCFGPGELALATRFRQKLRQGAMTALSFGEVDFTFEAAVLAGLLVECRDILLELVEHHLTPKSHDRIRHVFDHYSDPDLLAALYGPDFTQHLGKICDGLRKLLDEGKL
UniProt Q9D9R0: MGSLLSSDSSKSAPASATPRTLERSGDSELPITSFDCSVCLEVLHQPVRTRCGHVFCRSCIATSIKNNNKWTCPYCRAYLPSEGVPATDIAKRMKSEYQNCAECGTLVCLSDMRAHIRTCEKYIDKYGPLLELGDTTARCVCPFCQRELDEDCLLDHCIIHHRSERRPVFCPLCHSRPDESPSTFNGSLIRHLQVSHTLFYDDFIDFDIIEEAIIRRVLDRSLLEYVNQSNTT
UniProt Q9D939: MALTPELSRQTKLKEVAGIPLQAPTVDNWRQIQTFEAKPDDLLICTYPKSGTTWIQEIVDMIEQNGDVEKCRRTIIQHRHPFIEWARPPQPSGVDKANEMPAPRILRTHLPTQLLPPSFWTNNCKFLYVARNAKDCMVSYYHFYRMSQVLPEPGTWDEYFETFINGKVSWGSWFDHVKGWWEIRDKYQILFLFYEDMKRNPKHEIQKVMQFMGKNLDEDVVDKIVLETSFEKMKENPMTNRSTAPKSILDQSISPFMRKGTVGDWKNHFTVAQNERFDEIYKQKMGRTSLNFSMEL
UniProt Q9D2X8: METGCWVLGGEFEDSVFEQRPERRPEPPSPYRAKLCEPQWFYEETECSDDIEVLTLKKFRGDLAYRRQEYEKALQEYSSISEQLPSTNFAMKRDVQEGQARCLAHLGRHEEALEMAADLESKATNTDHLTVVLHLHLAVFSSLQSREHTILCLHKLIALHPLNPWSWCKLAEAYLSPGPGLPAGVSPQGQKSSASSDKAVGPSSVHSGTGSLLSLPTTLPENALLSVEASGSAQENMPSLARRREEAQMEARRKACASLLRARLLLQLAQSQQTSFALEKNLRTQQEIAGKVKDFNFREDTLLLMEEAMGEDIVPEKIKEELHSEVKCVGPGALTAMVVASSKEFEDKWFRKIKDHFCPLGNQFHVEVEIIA
UniProt Q9D358: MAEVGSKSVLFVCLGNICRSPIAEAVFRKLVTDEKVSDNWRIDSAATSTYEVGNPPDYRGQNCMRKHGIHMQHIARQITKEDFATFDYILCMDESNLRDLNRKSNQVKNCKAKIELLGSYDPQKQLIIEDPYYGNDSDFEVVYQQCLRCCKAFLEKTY
UniProt Q9D2Y4: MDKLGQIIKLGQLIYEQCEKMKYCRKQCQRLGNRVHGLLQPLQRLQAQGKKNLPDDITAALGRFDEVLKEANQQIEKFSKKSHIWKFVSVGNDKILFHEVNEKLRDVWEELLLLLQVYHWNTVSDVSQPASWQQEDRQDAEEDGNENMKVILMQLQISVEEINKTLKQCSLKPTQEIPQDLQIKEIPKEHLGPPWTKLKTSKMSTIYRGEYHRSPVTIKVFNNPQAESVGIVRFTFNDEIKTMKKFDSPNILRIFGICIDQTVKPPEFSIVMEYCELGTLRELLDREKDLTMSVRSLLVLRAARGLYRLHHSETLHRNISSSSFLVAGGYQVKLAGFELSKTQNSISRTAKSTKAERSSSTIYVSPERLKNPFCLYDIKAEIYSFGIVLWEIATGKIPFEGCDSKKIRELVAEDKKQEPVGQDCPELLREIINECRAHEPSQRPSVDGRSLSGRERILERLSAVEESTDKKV
UniProt Q9D864, whole entry: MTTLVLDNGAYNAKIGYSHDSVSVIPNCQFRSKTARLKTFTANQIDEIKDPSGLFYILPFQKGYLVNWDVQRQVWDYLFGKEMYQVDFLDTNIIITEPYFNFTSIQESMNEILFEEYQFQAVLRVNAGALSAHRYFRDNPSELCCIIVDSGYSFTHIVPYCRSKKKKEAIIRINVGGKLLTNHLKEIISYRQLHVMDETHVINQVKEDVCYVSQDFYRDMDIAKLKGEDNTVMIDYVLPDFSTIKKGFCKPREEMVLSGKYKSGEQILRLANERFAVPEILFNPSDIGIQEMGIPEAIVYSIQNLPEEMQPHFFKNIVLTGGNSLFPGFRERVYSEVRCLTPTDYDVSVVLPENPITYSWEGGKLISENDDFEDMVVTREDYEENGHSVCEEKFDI
UniProt Q9D7W5: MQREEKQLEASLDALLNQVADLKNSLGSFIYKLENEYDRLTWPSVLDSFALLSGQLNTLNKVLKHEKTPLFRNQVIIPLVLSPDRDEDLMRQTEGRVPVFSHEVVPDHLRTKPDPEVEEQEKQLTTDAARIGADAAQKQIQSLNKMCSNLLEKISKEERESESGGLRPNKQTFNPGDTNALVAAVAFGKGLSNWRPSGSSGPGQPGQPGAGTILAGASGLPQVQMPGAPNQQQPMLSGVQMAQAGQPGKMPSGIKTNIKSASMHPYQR
UniProt Q9DA03: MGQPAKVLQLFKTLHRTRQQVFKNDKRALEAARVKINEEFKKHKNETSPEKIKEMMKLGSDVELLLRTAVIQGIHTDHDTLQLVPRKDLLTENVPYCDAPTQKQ
UniProt Q9D4K7: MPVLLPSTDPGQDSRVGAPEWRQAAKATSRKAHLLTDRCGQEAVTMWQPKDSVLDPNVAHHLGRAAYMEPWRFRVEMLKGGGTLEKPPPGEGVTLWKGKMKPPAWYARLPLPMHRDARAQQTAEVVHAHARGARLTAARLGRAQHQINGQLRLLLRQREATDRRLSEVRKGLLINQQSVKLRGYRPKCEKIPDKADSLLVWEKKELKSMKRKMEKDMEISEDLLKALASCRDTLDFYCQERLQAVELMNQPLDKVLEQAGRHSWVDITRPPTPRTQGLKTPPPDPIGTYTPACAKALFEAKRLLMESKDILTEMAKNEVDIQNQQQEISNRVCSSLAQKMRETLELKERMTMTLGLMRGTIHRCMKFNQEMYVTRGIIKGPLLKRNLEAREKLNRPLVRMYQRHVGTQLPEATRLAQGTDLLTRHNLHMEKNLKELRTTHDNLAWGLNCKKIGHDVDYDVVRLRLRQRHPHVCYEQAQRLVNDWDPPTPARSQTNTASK
UniProt Q9D5R2: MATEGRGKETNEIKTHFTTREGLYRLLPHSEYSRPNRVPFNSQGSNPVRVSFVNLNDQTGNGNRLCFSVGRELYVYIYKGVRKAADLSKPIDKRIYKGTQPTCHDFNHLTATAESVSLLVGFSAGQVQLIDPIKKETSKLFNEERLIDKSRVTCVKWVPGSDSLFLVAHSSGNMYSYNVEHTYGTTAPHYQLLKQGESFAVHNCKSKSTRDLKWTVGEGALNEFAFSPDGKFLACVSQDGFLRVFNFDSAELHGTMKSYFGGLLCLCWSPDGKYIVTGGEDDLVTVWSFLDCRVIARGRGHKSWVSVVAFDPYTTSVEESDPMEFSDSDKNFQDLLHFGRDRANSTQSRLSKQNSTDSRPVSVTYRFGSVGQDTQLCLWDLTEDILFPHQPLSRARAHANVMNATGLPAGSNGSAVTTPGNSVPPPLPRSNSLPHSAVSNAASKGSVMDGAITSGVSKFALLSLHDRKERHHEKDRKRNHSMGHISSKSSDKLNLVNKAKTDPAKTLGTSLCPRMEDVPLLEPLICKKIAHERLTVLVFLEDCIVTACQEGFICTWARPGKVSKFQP
UniProt Q9D1R2: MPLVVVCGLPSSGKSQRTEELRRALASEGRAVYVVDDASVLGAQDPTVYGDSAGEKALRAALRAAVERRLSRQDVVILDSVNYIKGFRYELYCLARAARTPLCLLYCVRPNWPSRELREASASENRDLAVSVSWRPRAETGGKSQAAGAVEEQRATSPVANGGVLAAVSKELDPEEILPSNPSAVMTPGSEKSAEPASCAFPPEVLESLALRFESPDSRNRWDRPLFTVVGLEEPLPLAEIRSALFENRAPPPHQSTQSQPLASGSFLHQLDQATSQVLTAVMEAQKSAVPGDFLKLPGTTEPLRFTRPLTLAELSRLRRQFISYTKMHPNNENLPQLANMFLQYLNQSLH
UniProt Q9D504: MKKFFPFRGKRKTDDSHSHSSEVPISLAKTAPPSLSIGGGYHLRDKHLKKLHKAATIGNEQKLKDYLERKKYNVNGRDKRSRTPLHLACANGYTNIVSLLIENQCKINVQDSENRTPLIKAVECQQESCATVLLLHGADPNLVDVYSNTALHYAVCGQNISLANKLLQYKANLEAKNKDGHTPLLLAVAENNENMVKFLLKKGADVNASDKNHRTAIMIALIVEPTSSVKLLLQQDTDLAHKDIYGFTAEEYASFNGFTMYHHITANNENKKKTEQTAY

Compound: CN[C@@H]1C[C@H]2O[C@@](C)([C@@H]1OC)n1c3ccccc3c3c4c(c5c6ccccc6n2c5c31)C(=O)NC4 [staurosporine]
Test: log2 fold change of tryptic peptide abundance, ligand vs vehicle (limited proteolysis) (log2 ratio); higher = more trypsin-susceptible (destabilized)
Settings: ligand concentration: 20 uM; sample: mouse liver crude lysate; replicate design: treated separately

| Target | log2 fold change |
| --- | --- |
| UniProt Q9D2C2 (peptide sequence: LMLEWIR, peptide start residue: 217) | -0.208 |
| UniProt Q9D8K8 (peptide sequence: SSSALQSPGK, peptide start residue: 64) | -0.467 |
| UniProt Q9D8N6 (peptide sequence: NQLRYSESMK, peptide start residue: 228) | -0.162 |
| UniProt Q9D1N2 (peptide sequence: ADSPLESGTRHPQGGK, peptide start residue: 153) | 0.151 |
| UniProt Q9D844 (peptide sequence: SVPTNYYELLGVHPGASAEEIKR, peptide start residue: 33) | -0.489 |
| UniProt Q9DAC7 (peptide sequence: LGYFDEALEDFKK, peptide start residue: 102) | 0.12 |
| UniProt Q9D7H4 (peptide sequence: SGDQLAEER, peptide start residue: 47) | 0.0589 |
| UniProt Q9D5D8 (peptide sequence: TTPSGLQIMPLKK, peptide start residue: 136) | 0.352 |
| UniProt Q9D5K4 (peptide sequence: EQTREDDPQPNESKR, peptide start residue: 168) | -0.204 |
| UniProt Q9D4F2 (peptide sequence: ASDSPVHR, peptide start residue: 57) | 0.241 |
| UniProt Q9D6J5 (peptide sequence: DMLPGSYPR, peptide start residue: 35) | -0.154 |
| UniProt Q9D8Y7 (peptide sequence: DILLELVEHHLTPK, peptide start residue: 125) | 0.142 |
| UniProt Q9D9R0 (peptide sequence: AYLPSEGVPATDIAKR, peptide start residue: 78) | -0.214 |
| UniProt Q9D1K2 (peptide sequence: HALDAHQR, peptide start residue: 76) | 0.206 |
| UniProt Q9D939 (peptide sequence: ANEMPAPR, peptide start residue: 97) | 0.395 |
| UniProt Q9D4H2 (peptide sequence: SSLDIHGDESSLDINVLK, peptide start residue: 416) | 0.255 |
| UniProt Q9D8U0 (peptide sequence: SLTLADALEK, peptide start residue: 116) | 0.15 |
| UniProt Q9D1Q6 (peptide sequence: GTINFLHADCDKFR, peptide start residue: 292) | -0.987 |

Reformatted: results already given
Target | log2 fold change
UniProt Q9D844 (peptide sequence: SVPTNYYELLGVHPGASAEEIKR, peptide start residue: 33) | -0.489
UniProt Q9DAC7 (peptide sequence: LGYFDEALEDFKK, peptide start residue: 102) | 0.12
UniProt Q9D7H4 (peptide sequence: SGDQLAEER, peptide start residue: 47) | 0.0589
UniProt Q9D5D8 (peptide sequence: TTPSGLQIMPLKK, peptide start residue: 136) | 0.352
UniProt Q9D5K4 (peptide sequence: EQTREDDPQPNESKR, peptide start residue: 168) | -0.204
UniProt Q9D4F2 (peptide sequence: ASDSPVHR, peptide start residue: 57) | 0.241
UniProt Q9D6J5 (peptide sequence: DMLPGSYPR, peptide start residue: 35) | -0.154
UniProt Q9D8Y7 (peptide sequence: DILLELVEHHLTPK, peptide start residue: 125) | 0.142

The list continues:

| Target | log2 fold change |
| --- | --- |
| UniProt Q9D2X8 (peptide sequence: LIALHPLNPWSWCK, peptide start residue: 156) | 0.436 |
| UniProt Q9D8S9 (peptide sequence: LVHEALSEELAGPVHALAIQAK, peptide start residue: 88) | 0.142 |
| UniProt Q9D358 (peptide sequence: AFLEKTY, peptide start residue: 152) | 0.27 |
| UniProt Q9D945 (peptide sequence: METEIKR, peptide start residue: 79) | -0.226 |
| UniProt Q9D2Y4 (peptide sequence: KFDSPNILR, peptide start residue: 245) | 0.351 |
| UniProt Q9D864 (peptide sequence: EEMVLSGK, peptide start residue: 253) | 0.12 |
| UniProt Q9D142 (peptide sequence: IDGVAVGLCAHSPYLRPFTLHYR, peptide start residue: 4) | -0.561 |
| UniProt Q9D742 (peptide sequence: VHAFLIHTLR, peptide start residue: 2) | 0.511 |
| UniProt Q9D7W5 (peptide sequence: VPVFSHEVVPDHLR, peptide start residue: 97) | -0.349 |
| UniProt Q9D1F4 (peptide sequence: SLPVSVPVWAFK, peptide start residue: 184) | -0.213 |
| UniProt Q9D172 (peptide sequence: WPYAGTAEAIK, peptide start residue: 202) | 0.3 |
| UniProt Q9DA03 (peptide sequence: TAVIQGIHTDHDTLQLVPR, peptide start residue: 68) | -0.372 |
| UniProt Q9D4K7 (peptide sequence: GGGTLEK, peptide start residue: 80) | 0.0493 |
| UniProt Q9D361 (peptide sequence: MYSSVPVEVPLNHKR, peptide start residue: 137) | 0.22 |
| UniProt Q9D5R2 (peptide sequence: AADLSKPIDKR, peptide start residue: 84) | -0.219 |
| UniProt Q9D1R1 (peptide sequence: FRSPIISEIIEK, peptide start residue: 48) | 0.221 |
| UniProt Q9D1R2 (peptide sequence: GFRYELYCLAR, peptide start residue: 86) | -0.204 |
| UniProt Q9D504 (peptide sequence: KFFPFRGK, peptide start residue: 3) | 0.214 |
